Measurements published in PubChem BioAssay AID1508600 (Functional Genomics Laboratory (NCATS/FGL), 2020).
The campaign covered roughly 53,000 sequences. About 3,700 (7%) were called active.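 Rule for the calls: active = gene knockdowns whose robust z-score for IL-1 alpha signal is at least 2 or at most -2, so actives lie on both sides; inactive = the rest.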 The list shows a part of the results.

Assay: Components of the Cytosolic LPS Sensing Pathway: Gene Identification via Genome-wide siRNA Screen;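 note: robust z of the log signal after scaling to non-targeting control siRNA wells of the plate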
Conditions: RAW264.7 macrophages, IL-1a HTRF, actives lie on both sides, screened at 100 nM (by protocol), cells primed 5 h with Pam3CSK4 first
Outline: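 RAW264.7 mouse macrophages reverse-transfected with single siRNAs (100 nM final) for 48h, primed with Pam3CSK4 for 5 hours, then transfected with LipidA for 24 hour. Supernatant IL-1a read by HTRF; values normalized to negative-control median, log-transformed robust z-scores.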

Sequence	z-score
CCCUUCUCUGAUUGUCUGATT against Lce3b	inactive: -0.452
GGAAUCUCUGAAGAAGAAGTT against Jazf1	inactive: -1.47
CCACAAUCUGGCUCCUUCUTT against Ceacam1	inactive: -0.588
CCCUCUCUUUGGAUACACATT against Tenm4	active: -2.98
GGUAAGUUGUGUUUACUUATT against Aktip	inactive: 0.688
GCUCAACACCUAUUCCGACTT against Matn3	inactive: -0.715
GGUUCAACAGAAGAGGUGGTT against Exosc2	inactive: -1.23
CCUCCAAAAUGUGUCCACUTT against Krt10	inactive: -0.753
GCAAGAAUCAUCCGGUUACTT against Ttc39b	inactive: 1.36
GGGAUUAGUUCUAAGACAATT against Dio3	inactive: 0.754
GGCGUACAGUCACUAUGAGTT against Crym	inactive: -0.352
GGGAGUGAAUGUUUCACAUTT against Tmem116	inactive: -1.56
UGUUCUGGAAUAGAGUAACTT against Asphd2	inactive: 0.303
GGAGUUUACAGAAAUUAUCTT against Pecam1	inactive: 0.214
GCCAGAUCUGUUAACCGCCTT against Gzmk	active: 2.15
GAAUAGAGUCAAUGGAUAUTT against Rnf212	inactive: 0.835
GGAGAUUAACCGCACUAUCTT against Snx19	inactive: 1.12
GGGUUGAAUUCAGGUUCAATT against Rsad1	inactive: -1.01
GGGCUAUGUAUUGUAAAUGTT against Nxf1	active: -2.79
GCCUACCACGAAGCACUUUTT against Cd38	inactive: -0.233
GCAGUUUAAGAGAAUAAGGTT against Apaf1	inactive: -0.515
GGGAUAGCAAGACUUUCACTT against C5ar1	inactive: 0.194
GGAAUUUGUACCAUGUAUCTT against Tshz2	inactive: -0.177
GGCAGUGAGGUGUAUUGUUTT against Slc45a3	inactive: -1.16

Sequence	z-score
GGCUGAUAUGACCAACUUUTT against Thumpd3	inactive: -0.58
GCUGUGUGGACAAAGUCUGTT against Clec4b1	inactive: -0.398
GGAGUUCUUCAUUUACCGATT against Fbxw21	inactive: 0.688
GCUCCGAAGUGUGAAGAUUTT against Kcnn1	inactive: -1.39
GGAAAGGAAACCAAGUAAATT against Phf14	inactive: -0.299
GGGUAUCAUUGUGAUCUCUTT against Slc10a3	inactive: -0.484
CCAGAUGUCGGCAGAUAACTT against Pold4	inactive: 0.446
CCUCUGAACCUGAAAAAGATT against Gm1968	inactive: -0.605
GCGAAUAAGUAACUUGGUUTT against Fam149a	inactive: -1.01
GAAGAAACUCAUGACAAAUTT against Cox7b2	inactive: 1.92
CCUGAAUUCAGUCUGUUUUTT against Depdc1b	inactive: -0.931
CGUAAACACUCCUAACUUUTT against Hif1a	inactive: -0.543
GGCCGGAAACUAAUCAGACTT against Mcm10	inactive: 1.64
GGUAAUGUUCUCCUUUGAATT against Dok1	active: 4.89
GGCUAUACCUUUGACUAUGTT against Csnk1g1	inactive: 0.0256
GGAACUACUAGAAAAAGCATT against Plpbp	inactive: -0.426
GGUCGAAAGAAGGCCUUUATT against Olfr131	inactive: 0.634
CCUGUCGUCUCUCACUAGATT against Zfp9	inactive: -0.288
GCAAGCUACAUGCAUACAUTT against Zfp945	active: 3.59
CGACAACAUUUUCCUGUCATT against Serpinc1	active: -2.07
CCGUAAACAACCUUAAGUUTT against Hagh	inactive: 1.55
CCGAAAUCUCUCAUCGAUCTT against Sowaha	inactive: 0.178
GGCCAUUGAUCAAGACAAGTT against Glyat	inactive: 1.66
GGUGAUCACUAACAUGACATT against Smpdl3a	inactive: 0.0438

Some of the entries above in another layout.

| Sequence | z-score |
| --- | --- |
| GGGCUAUGUAUUGUAAAUGTT against Nxf1 | active: -2.79 |
| GCCUACCACGAAGCACUUUTT against Cd38 | inactive: -0.233 |
| GCAGUUUAAGAGAAUAAGGTT against Apaf1 | inactive: -0.515 |
| GGGAUAGCAAGACUUUCACTT against C5ar1 | inactive: 0.194 |
| GGAAUUUGUACCAUGUAUCTT against Tshz2 | inactive: -0.177 |
| GGCAGUGAGGUGUAUUGUUTT against Slc45a3 | inactive: -1.16 |
| GGCUGAUAUGACCAACUUUTT against Thumpd3 | inactive: -0.58 |
| GCUGUGUGGACAAAGUCUGTT against Clec4b1 | inactive: -0.398 |
| GGAGUUCUUCAUUUACCGATT against Fbxw21 | inactive: 0.688 |
| GCUCCGAAGUGUGAAGAUUTT against Kcnn1 | inactive: -1.39 |
| GGAAAGGAAACCAAGUAAATT against Phf14 | inactive: -0.299 |
| GGGUAUCAUUGUGAUCUCUTT against Slc10a3 | inactive: -0.484 |
| CCAGAUGUCGGCAGAUAACTT against Pold4 | inactive: 0.446 |
| CCUCUGAACCUGAAAAAGATT against Gm1968 | inactive: -0.605 |
| GCGAAUAAGUAACUUGGUUTT against Fam149a | inactive: -1.01 |
| GAAGAAACUCAUGACAAAUTT against Cox7b2 | inactive: 1.92 |
| CCUGAAUUCAGUCUGUUUUTT against Depdc1b | inactive: -0.931 |
| CGUAAACACUCCUAACUUUTT against Hif1a | inactive: -0.543 |
| GGCCGGAAACUAAUCAGACTT against Mcm10 | inactive: 1.64 |
| GGUAAUGUUCUCCUUUGAATT against Dok1 | active: 4.89 |
| GGCUAUACCUUUGACUAUGTT against Csnk1g1 | inactive: 0.0256 |
| GGAACUACUAGAAAAAGCATT against Plpbp | inactive: -0.426 |
| GGUCGAAAGAAGGCCUUUATT against Olfr131 | inactive: 0.634 |
| CCUGUCGUCUCUCACUAGATT against Zfp9 | inactive: -0.288 |
| GCAAGCUACAUGCAUACAUTT against Zfp945 | active: 3.59 |
| CGACAACAUUUUCCUGUCATT against Serpinc1 | active: -2.07 |
| CCGUAAACAACCUUAAGUUTT against Hagh | inactive: 1.55 |

Carrying on:

Sequence	z-score
CCGUGCACAACAUUGCCUATT against Qtrt1	inactive: -0.552
GGCUGUGUAUUACUGUGCCTT against Vpreb1	inactive: -0.352
GGUGUACGAACUUAGCCGGTT against Irf7	inactive: 0.423
CCAUAAAUCAUGAACUGGUTT against Sesn3	inactive: -1.41
CGUGCUACAGAUGCGUCAUTT against Exoc8	inactive: 0.783
GGAAGGAAUUGGUUACCUATT against Cep72	inactive: -0.2
CGUCCUAGGAAUCUACUUUTT against Itgad	active: 2.63
GCCUGCUAUUUAAUUCAUATT against Fam168a	inactive: -0.671
GGUGAUUCAGUUCAAAGUATT against Zrsr1	inactive: 0.174
GGAAAUCCUUUAUAUGUUGTT against Cyp2c70	inactive: -0.918
GCUGCUGAGACGGUUACCUTT against Gtf3c3	inactive: 0.764
GGAGAGAUUAGCUCACAUGTT against Slc9a6	inactive: -0.841
GGAAAACAUGUCACAUAAATT against Cd47	inactive: -0.519
GGAGGAGACCUUGAUUGAUTT against Cyp46a1	inactive: -1.28
GGAAGAAAAAUACCAGAAATT against Ubxn6	inactive: 0.305
GGCUGUCUUCUGAUCAAUUTT against Adamts3	active: 2.42
GCAAGAAACGGGAACUAUUTT against Mettl7b	inactive: 1.25
GGAUUAUGCAUAACCAUGATT against Pik3r1	inactive: 0.96
GGACUCUAGUUCUUCGUUUTT against H1f2	inactive: -0.798
CCCGAAGUACCAAAAAGUUTT against Usp21	inactive: -0.573
GCACUCGGAUCAAUGCACATT against Cenpt	inactive: 0.183
CCAUGAUUCUUCGCACUGUTT against Olfr67	inactive: -0.427
GCACGAAUUAUGGCACCGUTT against P2rx7	inactive: -0.597
GCUCUUAAGUACUUGGUCATT against Ddx47	inactive: -1.01

Sequence	z-score
GGACUAUGUAGUGAAACAUTT against Pdia4	inactive: -1.55
GCUGGUUAGACCCUUCCAATT against Hnf4g	active: 3.56
GGUCAUGAAAAAUGACAGCTT against Klra2	inactive: 0.126
GGGAGGUACUCAAGGUUCATT against Tfe3	inactive: 0.159
GGGAUGCGUUUGACUGGUGTT against Zfp455	inactive: 0.443
GGUGUUCUUCCUCUAUGAGTT against Chst2	inactive: -1.52
CCUCUUUAUCGGUGUUAUUTT against Scn11a	inactive: 1.03
GGACAUGAACAGAGAAGUGTT against Zpr1	inactive: -0.207
GCUUAAUCCUUAGUCAGCATT against F2rl2	inactive: -0.591
GGGAUCUUUGAGGAGUCUUTT against Snx12	inactive: -0.0659
GGUCAAAGGAAAAAGAAAATT against Stag1	inactive: -0.836
GCUUAUAACAGUUGAUGAGTT against Ndufs4	inactive: -0.54
GCCAAGAUCCAGGUGUGGUTT against Sebox	inactive: 0.192
GGAUUUGGAGCAGGUGGAUTT against Avpr1b	inactive: -0.97
CCAUCAAACGGAUCCAGCATT against Mex3d	inactive: -1.15
GGCAUCCUGAGAGAACUCATT against Insyn1	active: -2.27
GGAUACAAAUCCAGAUUCUTT against Pex26	inactive: -0.982
GGGUGAGAAAAUUCACGAGTT against Tubg2	inactive: 0.536
GGUUUCUGACCUCAAUAGUTT against Cmtm6	inactive: 1.62
GCGGGUGCUUUCUUGUUGUTT against Ackr1	inactive: 0.0775
GCAUCUGUGCCGAUUAAAATT against Asb15	inactive: 1.32
GGACAAAAUUAAGGAUUGCTT against Foxg1	inactive: 1.42
UCAGGUGAAGAUAAGGACATT against Olfr198	inactive: 0.53
